The other results are listed elsewhere or left out. Some salts or complexes appear as unconnected parts, following the source record.
Test: compounds boosting herpes simplex virus growth – fold increase, host cell viability (AID 1956); also: tested in PC3 cells
Settings: HSV replication augmentation in cells; fold increase: measured here: primary screen fold increase 10 uM, at 10 µM, stronger effect = higher value; viability: measured here: host cell viability series, at 25 µM, stronger effect = lower value
For O=C(O)c1ccccc1[As](=O)(O)O, the fold increase was 1.11. In the case of CC(=O)Nc1ccc([As](=O)(O)O)cc1, the fold increase is reported as 1.1. Compound Cc1cc(C)cc(OP(C)(=O)Nc2cccc(C(F)(F)F)c2)c1 (centres undefined) has a fold increase of 1.03. O=P(Nc1nc2ccc(Cl)cc2s1)(c1ccccc1)c1ccccc1 gave a fold increase of 0.97. CN(C(=O)Cc1ccc(Cl)c(Cl)c1)[C@H]1CCCC[C@@H]1N1CCCC1 showed a fold increase of 0.74. Compound Cc1ccc(NP(=O)(Oc2ccccc2F)Oc2ccccc2F)nc1 has a fold increase of 0.98. COc1ccccc1OP(C)(=O)Nc1ccc(C)c(C)c1 (centres undefined) showed a fold increase of 0.95. For CCOP(=O)(Nc1ccccc1)OCC, the fold increase was 1.06. For Cc1cc(SC(NC(=O)c2ccc(F)cc2)C(Cl)(Cl)Cl)ncn1 (centres undefined), the fold increase was 0.95. For COc1ccc(OP(C)(=O)Nc2ccccc2Br)cc1 (centres undefined), the fold increase was 1. In the case of CC(=O)NC(SC(=S)N(CC(C)C)CC(C)C)C(Cl)(Cl)Cl (centres undefined), the fold increase is reported as 1.02. In the case of Cc1ccc(OP(=O)(Nc2ccccn2)Oc2ccc(C)cc2)cc1, the fold increase is reported as 0.9. COC(=O)c1cc2c(s1)N=C(c1ccccc1)N(C)P2(=O)N1CCOCC1 (centres undefined) showed a fold increase of 0.98. In the case of CCC(=O)N1C2C3N(C(=O)CC)C1C1N(C(=O)CC)C(C(N1C(=O)CC)N3C(=O)CC)N2C(=O)CC, the fold increase is reported as 0.96. With CCN(CC)CCCOC(=O)C(O)(c1ccccc1)C1CCCCC1 (centres undefined) the fold increase was 0.94. CP(=O)(Nc1ccccc1)Oc1ccc(F)cc1 (centres undefined) showed a fold increase of 0.93. Work on CN(C)C(=O)Oc1noc2ccccc12 yielded a fold increase of 1.08. With O=c1c2cc([N+](=O)[O-])ccc2[nH]c2c([N+](=O)[O-])cc([N+](=O)[O-])cc12 the fold increase was 0.65. Work on CCCCCOc1ccc(NP(C)(=O)Oc2ccc(Cl)cc2Cl)cc1 (centres undefined) yielded a fold increase of 0.95. Cc1ccccc1OP(=O)(Nc1ccccn1)Oc1ccccc1C showed a fold increase of 0.89. For O=C(NC1CCS(=O)(=O)C1)NP(=S)(Oc1ccccc1)Oc1ccccc1 (centres undefined), the fold increase was 1.05. In the case of CCNC(=S)/N=C(\N)N[N+](=O)[O-], the fold increase is reported as 1.03. Compound Cc1ccc(NP(=O)(Oc2cccc(C)c2)Oc2cccc(C)c2)nc1 has a fold increase of 0.91. CCOC(=O)NC(Sc1ccccc1)C(Cl)(Cl)Cl (centres undefined) gave a fold increase of 0.76. Work on c1ccc(-c2nn[nH]n2)c(-c2nn[nH]n2)c1 yielded a fold increase of 1. For CCOC(=O)c1ccc(NP(C)(=O)Oc2ccc(F)cc2)cc1 (centres undefined), the fold increase was 0.98. In the case of COc1ccc(OP(C)(=O)Nc2ccc(SC(F)(F)F)cc2)cc1 (centres undefined), the fold increase is reported as 0.9. O=C(OC1CN2CCC1CC2)c1ccc([N+](=O)[O-])cc1 (centres undefined) gave a fold increase of 0.85. Compound C[C@@H]1C=CCP(=O)(Oc2ccccc2)O1 (some centres undefined) has a fold increase of 0.97. With C[C@H]1OP(=O)(Oc2ccccc2)C[C@@H]2O[C@@H]21 (some centres undefined) the fold increase was 0.795. In the case of CC(=O)Nc1ccc(Oc2c([N+](=O)[O-])cc([N+](=O)[O-])cc2[N+](=O)[O-])cc1, the fold increase is reported as 1.03. For COc1ccc2c(c1O)-c1c(O)c(OC)cc3c1[C@H](C2)[N+](C)(C)CC3.O=[N+]([O-])c1cc([N+](=O)[O-])c([O-])c([N+](=O)[O-])c1[O-], the fold increase was 0.86. CC(=O)Nc1ccc([As](=O)(O)O)c(O)c1 showed a fold increase of 0.98. Compound CCOc1ccc(C2=NCC(CBr)S2)cc1 (centres undefined) has a fold increase of 0.96. O=P1(Nc2nc3ccc(Cl)cc3s2)COc2ccccc2O1 (centres undefined) gave a fold increase of 1.09. With CP(=O)(Nc1ccccc1F)Oc1ccccc1 (centres undefined) the fold increase was 0.96. CC(C)c1ccc(OP(C)(=O)Nc2ccc(SC(F)(F)F)cc2)cc1 (centres undefined) showed a fold increase of 0.86. In the case of CC(C)(C)C(=O)NC(Sc1ccccc1)C(Cl)(Cl)Cl (centres undefined), the fold increase is reported as 0.95. Compound CP(=O)(Nc1ccc2c(c1)OCCO2)Oc1ccccc1 (centres undefined) has a fold increase of 1.09. With Cc1ccccc1NP(C)(=O)Nc1ccccc1C the fold increase was 1.03. In the case of CP(=O)(Nc1ccc(SC(F)(F)F)cc1)Oc1ccc(F)cc1 (centres undefined), the fold increase is reported as 0.91. For O=P(Nc1nccs1)(c1ccccc1)c1ccccc1, the fold increase was 0.91. Compound CC(C)C(=O)NC(Sc1ccccc1)C(Cl)(Cl)Cl (centres undefined) has a fold increase of 1.05. CCOP(C)(=S)SCC(=O)NC(C)(CC)C(=O)O (centres undefined) gave a fold increase of 0.98. For c1nnnn1CCn1cnnn1, the fold increase was 0.9. For CC(=O)NC(SC(=S)N(C)C)C(Cl)(Cl)Cl (centres undefined), the fold increase was 0.92. For O=[N+]([O-])c1ccc(OP2(=O)COCCO2)cc1 (centres undefined), the fold increase was 1.15. Work on O=[N+]([O-])c1ncn(CCn2cnc([N+](=O)[O-])n2)n1 yielded a fold increase of 0.88. Cc1cc(-c2cccc3ccccc23)c(C)cn1.O=[N+]([O-])c1cc([N+](=O)[O-])c(O)c([N+](=O)[O-])c1 gave a fold increase of 0.83. Work on O=[N+]([O-])c1cc([N+](=O)[O-])c(NCC2CCS(=O)(=O)C2)c([N+](=O)[O-])c1 (centres undefined) yielded a fold increase of 0.68. For O=[As](O)(c1ccccc1)c1ccc(O)cc1, the fold increase was 1.09. Compound Nc1ccc([As](=O)(O)c2ccc([N+](=O)[O-])cc2)cc1 has a fold increase of 0.96. Compound O=C(OC1CN2CCC1CC2)c1cccc(Cl)c1 (centres undefined) has a fold increase of 0.99. COc1ccc(OP(C)(=O)Nc2cccc(Br)c2)cc1 (centres undefined) showed a fold increase of 0.98. For O=P(Nc1ccccn1)(c1ccc(Br)cc1)c1ccc(Br)cc1, the fold increase was 0.9. C[C@H]1OP(=O)(Oc2ccccc2)[C@H](O)[C@H](O)[C@H]1N=[N+]=[N-] (some centres undefined) gave a fold increase of 0.81. For O=P(Nc1nc2ccccc2s1)(c1ccccc1)c1ccccc1, the fold increase was 0.91. In the case of CN(C)CCOC(=O)C(O)(c1ccccc1)C1CCCCC1 (centres undefined), the fold increase is reported as 1.01. For COc1ccc(NP(C)(=O)Oc2ccccc2OC)cc1 (centres undefined), the fold increase was 1.01.

— PubChem BioAssay AID1956 (SRMLSC, 2009)
